Assay results: patent US20190071501A1 (REYOUNG SUZHOU BIOLOGY SCIENCE AND TECHNOLOGY, published 2019)
Results are given in words; binding and its absence hold for the method and conditions named. Binding can be weak; no strength is given.

Molecular target: Recombinant human PD-1 fusion protein (human)
Experiment: ELISA: recombinant human PD-1 fusion protein coated at 0.5 ug/mL, antibody after storage in monkey serum, goat anti-human FAB-HRP, OD450

- binding: binds
B1: humanized antibody anti-PD-1 (antibody, V domains shown)
VH: EVQLVESGGGLVKPGGSLRLSCAASGFTFSSYTMSWVRQAPGKGLEWVATISNGGSFTYYPDSMKGRFTISRDNSKNTLYLQMSSLRAEDTAVYYCARDSDYYGIFDYWGQGTTVTVSS
VL: DIVMTQSPLSLPVTPGEPASISCRSSKSLLYKDGKTYLNWYLQKPGQSPQLLIYLMSTRASGVPDRFSGSGSGTDFTLKISRVEAEDVGVYYCQQLVEDPFTFGQGTKLEIKR
notes: Human constant regions; also called humanized PD-1 antibody; hup01 (plasmids P3.1GS-hup01-HC / P3.1GS-hup01-LC)
